Test results from publication PMC10643375.
No constants are given. Whether binding was seen depends on the method and setting. Binding seen in cells or lysates may run through a third protein. Some results given as binding are weak or reduced against the parent protein; the word gives no strength. Tags and fused reporters may be left off the sequences shown.

Protein sequences, listed by entry. Tags and fused reporters are not part of them.
UniProt Q99496: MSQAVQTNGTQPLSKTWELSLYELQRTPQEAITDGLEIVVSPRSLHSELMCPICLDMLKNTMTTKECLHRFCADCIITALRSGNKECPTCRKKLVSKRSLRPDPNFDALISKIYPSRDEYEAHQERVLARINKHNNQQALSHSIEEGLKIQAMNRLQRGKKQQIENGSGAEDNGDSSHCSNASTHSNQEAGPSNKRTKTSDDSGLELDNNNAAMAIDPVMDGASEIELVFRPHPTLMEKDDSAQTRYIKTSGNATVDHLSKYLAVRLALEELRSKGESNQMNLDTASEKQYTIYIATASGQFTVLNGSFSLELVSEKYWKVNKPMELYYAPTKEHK

Molecular target: T1, TCF7L1-HA (UniProt Q9HCS4)
T1 sequence: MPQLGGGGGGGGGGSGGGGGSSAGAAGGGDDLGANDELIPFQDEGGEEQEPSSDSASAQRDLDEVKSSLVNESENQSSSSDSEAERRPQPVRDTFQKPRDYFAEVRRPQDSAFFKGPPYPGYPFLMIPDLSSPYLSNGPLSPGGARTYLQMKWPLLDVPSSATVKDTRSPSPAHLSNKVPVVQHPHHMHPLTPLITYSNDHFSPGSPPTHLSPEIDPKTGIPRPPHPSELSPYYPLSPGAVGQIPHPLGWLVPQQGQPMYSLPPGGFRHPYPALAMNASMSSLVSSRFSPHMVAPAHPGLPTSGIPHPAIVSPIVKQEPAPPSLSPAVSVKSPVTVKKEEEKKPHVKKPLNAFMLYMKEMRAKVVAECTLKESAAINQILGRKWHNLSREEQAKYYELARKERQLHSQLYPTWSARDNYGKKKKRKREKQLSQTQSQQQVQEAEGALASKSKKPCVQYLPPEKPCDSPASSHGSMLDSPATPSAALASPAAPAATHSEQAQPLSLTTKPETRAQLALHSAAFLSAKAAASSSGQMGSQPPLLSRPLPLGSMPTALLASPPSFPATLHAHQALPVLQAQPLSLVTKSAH
Assay: co-IP; HeLa cells transfected with 6 µg TCF7L1-HA and 6 µg myc-RNF2, MG132 (10 µM, 12 h); lysed in IP buffer (50 mM Tris-HCl pH 7.5, 150 mM NaCl, 1% NP-40, 1 mM EDTA); immunoprecipitation with anti-myc and anti-HA, Protein G magnetic beads, Western blot

With myc-RNF2 (from UniProt Q99496 1-336) the binding was “binds”.
